In paper PMC4071844:
Results are given in words; binding and its absence hold for the method and conditions named. For some assays here: In cells and extracts the contact can be indirect. Some binding calls cover weakened binding; strength is not graded here. For some assays here: Where a sequence is shown, tags or fusion partners need not be part of it.

Assays:
MYB82 (Arabidopsis) [1] = biological target: T1, MYB82 (Arabidopsis) (UniProt Q9LTF7); experiment: two-hybrid; MYB82 and its fragments fused to the BD of pGBKT7, GL3 fused to the AD of pGADT7; growth on synthetic dropout medium lacking Leu/Trp/His/Ade and containing 5mM 3AT
T1 sequence: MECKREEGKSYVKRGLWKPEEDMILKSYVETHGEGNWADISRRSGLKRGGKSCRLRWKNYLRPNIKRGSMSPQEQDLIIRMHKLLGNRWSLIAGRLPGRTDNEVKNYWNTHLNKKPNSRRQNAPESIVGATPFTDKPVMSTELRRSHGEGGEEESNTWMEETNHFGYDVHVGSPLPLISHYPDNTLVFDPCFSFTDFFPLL

MYB82-nYFP (Arabidopsis) = biological target: T2, MYB82-nYFP (Arabidopsis) (UniProt Q9LTF7); experiment: split reporter; BiFC: nYFP and cYFP fusions transiently coexpressed in N. benthamiana leaves by Agrobacterium infiltration, 24 °C for 48h before observation
T2 sequence: T1 sequence

GL1 (Arabidopsis) = biological target: T3, GL1 (Arabidopsis) (UniProt P27900); experiment: two-hybrid; dimer tests of MYB82 and GL1, full length and fragments, in pGBKT7 or pGADT7 (which in which is not told); growth on synthetic dropout medium lacking Leu/Trp/His/Ade and containing 5mM 3AT
T3 sequence: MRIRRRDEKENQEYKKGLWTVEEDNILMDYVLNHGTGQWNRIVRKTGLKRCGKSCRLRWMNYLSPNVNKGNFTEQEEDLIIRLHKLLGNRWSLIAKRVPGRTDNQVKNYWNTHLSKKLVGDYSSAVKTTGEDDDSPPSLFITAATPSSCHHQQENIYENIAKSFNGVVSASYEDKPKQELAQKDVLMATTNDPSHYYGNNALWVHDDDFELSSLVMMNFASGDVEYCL

MYB82 (Arabidopsis) [2] = biological target: T1, MYB82 (Arabidopsis); experiment: as above

B1: GLABRA3 (GL3) (protein, UniProt Q9FN69 1-637)
chain: MATGQNRTTVPENLKKHLAVSVRNIQWSYGIFWSVSASQSGVLEWGDGYYNGDIKTRKTIQASEIKADQLGLRRSEQLSELYESLSVAESSSSGVAAGSQVTRRASAAALSPEDLADTEWYYLVCMSFVFNIGEGMPGRTFANGEPIWLCNAHTADSKVFSRSLLAKSAAVKTVVCFPFLGGVVEIGTTEHITEDMNVIQCVKTSFLEAPDPYATILPARSDYHIDNVLDPQQILGDEIYAPMFSTEPFPTASPSRTTNGFDQEHEQVADDHDSFMTERITGGASQVQSWQLMDDELSNCVHQSLNSSDCVSQTFVEGAAGRVAYGARKSRVQRLGQIQEQQRNVKTLSFDPRNDDVHYQSVISTIFKTNHQLILGPQFRNCDKQSSFTRWKKSSSSSSGTATVTAPSQGMLKKIIFDVPRVHQKEKLMLDSPEARDETGNHAVLEKKRREKLNERFMTLRKIIPSINKIDKVSILDDTIEYLQELERRVQELESCRESTDTETRGTMTMKRKKPCDAGERTSANCANNETGNGKKVSVNNVGEAEPADTGFTGLTDNLRIGSFGNEVVIELRCAWREGVLLEIMDVISDLHLDSHSVQSSTGDGLLCLTVNCKHKGSKIATPGMIKEALQRVAWIC
- binding (MYB82 (Arabidopsis) [1]): binds

B2: GL3-cYFP (protein, UniProt Q9FN69 1-637)
chain: B1 chain
- binding (MYB82-nYFP (Arabidopsis)): binds

B3: MYB82 (protein, UniProt Q9LTF7 1-201)
chain: T1 sequence
- binding (GL1 (Arabidopsis)): binds
- binding (MYB82 (Arabidopsis) [2]): binds

B4: GL1 (protein, UniProt P27900 1-228)
chain: T3 sequence
- binding (GL1 (Arabidopsis)): binds
